Source: PMC5412559
These are yes or no findings as the source states them, for the method shown. In cells and extracts the contact can be indirect. Some binding calls cover weakened binding; strength is not graded here. Tags and fused reporters may be left off the sequences shown.

Target: T1, dSarm-3×Flag (Drosophila melanogaster) (UniProt Q6IDD9)
T1 sequence: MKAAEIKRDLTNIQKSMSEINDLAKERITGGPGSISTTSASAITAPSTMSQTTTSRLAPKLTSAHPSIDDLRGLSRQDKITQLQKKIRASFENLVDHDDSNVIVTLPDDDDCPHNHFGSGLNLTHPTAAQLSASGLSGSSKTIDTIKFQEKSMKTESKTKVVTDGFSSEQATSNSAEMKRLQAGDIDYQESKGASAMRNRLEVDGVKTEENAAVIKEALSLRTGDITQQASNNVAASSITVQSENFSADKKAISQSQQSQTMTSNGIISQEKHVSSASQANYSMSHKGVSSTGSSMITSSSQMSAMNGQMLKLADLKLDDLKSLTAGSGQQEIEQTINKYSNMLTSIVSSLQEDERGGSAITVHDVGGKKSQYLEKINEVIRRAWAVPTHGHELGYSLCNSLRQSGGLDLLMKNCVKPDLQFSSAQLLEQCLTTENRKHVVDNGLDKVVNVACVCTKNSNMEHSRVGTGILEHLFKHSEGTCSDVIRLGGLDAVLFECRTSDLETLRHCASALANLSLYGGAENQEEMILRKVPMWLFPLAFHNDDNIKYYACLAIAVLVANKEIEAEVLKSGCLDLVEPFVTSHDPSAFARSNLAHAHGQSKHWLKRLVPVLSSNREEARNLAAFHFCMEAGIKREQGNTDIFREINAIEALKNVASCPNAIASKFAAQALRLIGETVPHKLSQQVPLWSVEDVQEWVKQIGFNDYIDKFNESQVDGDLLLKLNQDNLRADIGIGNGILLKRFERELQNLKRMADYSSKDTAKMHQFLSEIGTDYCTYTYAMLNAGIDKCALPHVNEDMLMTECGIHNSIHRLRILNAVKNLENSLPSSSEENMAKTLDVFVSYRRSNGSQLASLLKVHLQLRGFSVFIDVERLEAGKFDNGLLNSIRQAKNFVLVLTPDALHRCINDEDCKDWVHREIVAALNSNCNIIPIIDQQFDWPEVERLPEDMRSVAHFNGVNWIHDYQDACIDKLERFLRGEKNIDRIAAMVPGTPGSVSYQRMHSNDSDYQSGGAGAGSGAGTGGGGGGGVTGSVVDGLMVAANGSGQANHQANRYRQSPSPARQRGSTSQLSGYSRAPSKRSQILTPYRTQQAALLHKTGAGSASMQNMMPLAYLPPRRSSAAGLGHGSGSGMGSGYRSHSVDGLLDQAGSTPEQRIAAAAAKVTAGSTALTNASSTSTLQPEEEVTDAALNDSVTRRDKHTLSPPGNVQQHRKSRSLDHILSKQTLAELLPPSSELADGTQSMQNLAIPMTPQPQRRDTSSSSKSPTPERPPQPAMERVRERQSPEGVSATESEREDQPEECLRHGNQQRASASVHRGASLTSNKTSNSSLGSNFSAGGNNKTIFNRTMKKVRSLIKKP
Assay: co-IP; S2 cells cotransfected, collected 48 h after transfection, lysed in NP-40 buffer or Flag affinity chromatography buffer; the Flag-tagged protein precipitated with anti-Flag antibody-conjugated agarose or magnetic beads; Western blot

B1: Wek-3×HA (protein, UniProt Q9VJN5 1-470)
chain: MGVPTSDWIYWCRLCARDDVVYKVRERDDDLVRIISKCFDVEMTLEEPELGSMLCEECYSVIGQLITFSDSVSKVQAIFELLRHSEPQDSQDLDALRLEYGLPPACKQDLEFLDIDDTEDRCSLVEELTISDHSTSPSPDFEAQTVRTRANLKQCNSDPKVLASPTASIPEVETKRSRRQQFAAKRNSKVYTATESDDEEAILDEDEAVSPPPLKRKRGRPKGSGKQKNVDDSDNVTSREPDDNAKSKQDDKTSELSMSPHGSQSSNFVDYPCKICNETFMSFMALRRHKHDMHGGPKKYVCDHCGKGLKTFTSLVEHQLVHTEEKPCICPVCNAGFKNKARLRVHSQTHGEPKFECNVCGKKLQTRAILNKHKYVHTDERRFKCEVCGSGCKNSTALKIHLLGHTGLRPYVCKYCGKAFASNTNCRSHKWKKHPELASKEDETESSRVPVPTLEELRAITREMAKAKQD
  binding: binds
